# Measured values from PubChem BioAssay AID190 (DTP/NCI, 2004).
# The list does not hold the whole screen: it gathers tests that were run many times, whatever their T/C, doses with no T/C, and many T/C values between a quarter and a half above the control. Further doses and runs are listed elsewhere. T/C gives the treated animals as a percentage of the vehicle group. Some doses have a count of surviving animals in place of a T/C: the source files T/C as zero there, which appears to mark a toxic dose or a test without result, not a measured value. Some doses without a T/C left all or most animals alive at the check, yet need not have been tolerated: survival well below the control is almost never listed, so the zero probably covers shortened survival too. Survivors were counted at the toxicity check, usually on the fifth day, unless a day is given; later deaths do not show. Schedule codes are those of the source, read here as Q, the interval in days (D) or hours (H), X, the number of doses. Some doses were run more than once; their values stand side by side, smallest first. Where survival is the endpoint, this PubChem deposit counts one and a half times the control or more as active, and values a quarter to a half above the control carry no call in these data; other NCI protocols may use other cut-offs. Some T/C values carry the count of animals alive at the toxicity check (mostly the fifth day); where none is given, no animal had died by that day.
# Test system: AKR/Lw mice, AKR lymphoma ip, median survival T/C
# Assay: NCI In Vivo Anticancer Drug Screen. Data for tumor model Lymphoma AKR (Transplanted) (intraperitoneal) in AKR/Lw mice
# Details: T/C endpoint: median survival time, higher T/C = longer survival
# Experimental: The antitumor activity of compounds was measured in mice bearing transplantable tumors. Survival or tumor size were measured and the results are expressed as the measurement made in the treated group (T) divided by the measurement made in the vehicle treated control group (C). The tumor model used in this assay is Lymphoma AKR (Transplanted) (intraperitoneal) in AKR/Lw mice
# [1] = dose: 20.0 mg/kg/injection, schedule: Q04DX003 (ip), vehicle: Klucel (hydroxypropylcellulose) (HPC)
# [2] = dose: 25.0 mg/kg/injection, schedule: Q01DX001 (ip), vehicle: saline
# [3] = dose: 50.0 mg/kg/injection, schedule: Q01DX001 (ip), vehicle: Klucel (hydroxypropylcellulose) (HPC)
# [4] = dose: 50.0 mg/kg/injection, schedule: Q01DX001 (ip), vehicle: saline
# [5] = dose: 100.0 mg/kg/injection, schedule: Q01DX001 (ip), vehicle: saline
# [6] = dose: 200.0 mg/kg/injection, schedule: Q01DX001 (ip), vehicle: saline with Tween-80
# [7] = dose: 200.0 mg/kg/injection, schedule: Q01DX001 (ip), vehicle: saline
compound,measurement,setting,value
O=C(O)CCCc1ccc(N(CCCl)CCCl)cc1,T/C,"dose: 0.5 mg/kg/injection, schedule: Q01DX009 (ip), vehicle: Klucel (hydroxypropylcellulose) (HPC)",128 % of control
same,survivor count,"dose: 1.2 mg/kg/injection, schedule: Q04DX003 (ip), vehicle: saline",5 of 10
same,survivor count,"dose: 1.5 mg/kg/injection, schedule: Q01DX009 (ip), vehicle: saline",9 of 10
same,T/C,"dose: 2.5 mg/kg/injection, schedule: Q04DX003 (ip), vehicle: Klucel (hydroxypropylcellulose) (HPC)",145 % of control
same,survivor count,"dose: 3.0 mg/kg/injection, schedule: Q01DX009 (ip), vehicle: saline",9 of 10
same,T/C,"dose: 5.0 mg/kg/injection, schedule: Q01DX009 (ip), vehicle: saline",133 % of control [9 of 10 alive]
same,survivor count,"dose: 5.0 mg/kg/injection, schedule: Q04DX003 (ip), vehicle: saline",10 of 10
same,survivor count,"dose: 6.0 mg/kg/injection, schedule: Q01DX009 (ip), vehicle: saline",10 of 10
same,T/C,"dose: 8.0 mg/kg/injection, schedule: Q01DX009 (ip), vehicle: saline",146 % of control
same,survivor count,"dose: 10.0 mg/kg/injection, schedule: Q01DX009 (ip), vehicle: Klucel (hydroxypropylcellulose) (HPC)",9 of 10
same,survivor count,"dose: 10.0 mg/kg/injection, schedule: Q01DX009 (ip), vehicle: saline",7 of 10
same,T/C,"dose: 10.0 mg/kg/injection, schedule: Q04DX003 (ip), vehicle: Klucel (hydroxypropylcellulose) (HPC)","105, 111, 116, 140 % of control"
same,survivor count,"dose: 10.0 mg/kg/injection, schedule: Q04DX003 (ip), vehicle: saline",5 of 10 and 10 of 10
same,survivor count,"dose: 12.5 mg/kg/injection, schedule: Q01DX009 (ip), vehicle: saline",10 of 10
same,survivor count,"dose: 16.0 mg/kg/injection, schedule: Q01DX009 (ip), vehicle: saline",10 of 10
same,survivor count,"dose: 20.0 mg/kg/injection, schedule: Q01DX009 (ip), vehicle: saline",7 of 10
same,T/C,[1],"94, 127, 142 % of control"
same,survivor count,[1],10 of 10
same,T/C,"dose: 25.0 mg/kg/injection, schedule: Q01DX001 (ip), vehicle: Klucel (hydroxypropylcellulose) (HPC)","100, 110 [7 of 10 alive], 118 [7 of 10 alive], 122 % of control"
same,T/C,[2],"102 [9 of 10 alive], 111, 116, 133 % of control"
same,survivor count,"dose: 25.0 mg/kg/injection, schedule: Q01DX009 (ip), vehicle: saline",0 of 10 and 9 of 10
same,survivor count,"dose: 25.0 mg/kg/injection, schedule: Q04DX003 (ip), vehicle: saline",9 of 10
same,survivor count,"dose: 32.0 mg/kg/injection, schedule: Q01DX009 (ip), vehicle: saline",9 of 10
same,survivor count,"dose: 40.0 mg/kg/injection, schedule: Q04DX003 (ip), vehicle: Klucel (hydroxypropylcellulose) (HPC)",9 of 10
same,T/C,[3],88 [9 of 10 alive] and 129 % of control [9 of 10 alive]
same,survivor count,[3],4 of 10 and 8 of 10
same,T/C,[4],"106 [7 of 10 alive], 111, 116 % of control"
same,survivor count,[4],6 of 10
same,survivor count,"dose: 50.0 mg/kg/injection, schedule: Q01DX009 (ip), vehicle: saline",0 of 10
same,survivor count,"dose: 50.0 mg/kg/injection, schedule: Q04DX003 (ip), vehicle: saline",1 of 10
same,survivor count,"dose: 64.0 mg/kg/injection, schedule: Q01DX009 (ip), vehicle: saline",0 of 10
same,survivor count,"dose: 100.0 mg/kg/injection, schedule: Q01DX001 (ip), vehicle: Klucel (hydroxypropylcellulose) (HPC)",0 of 10 and 5 of 10
same,survivor count,"dose: 100.0 mg/kg/injection, schedule: Q01DX001 (ip), vehicle: saline with Tween-80",10 of 10
same,T/C,[5],126 [8 of 10 alive] and 131 % of control [9 of 10 alive]
same,survivor count,[5],"0 of 10, 1 of 10, 3 of 10"
same,survivor count,"dose: 100.0 mg/kg/injection, schedule: Q01DX009 (ip), vehicle: saline",0 of 10
same,survivor count,"dose: 100.0 mg/kg/injection, schedule: Q04DX003 (ip), vehicle: saline",0 of 10
same,survivor count,"dose: 200.0 mg/kg/injection, schedule: Q01DX001 (ip), vehicle: Klucel (hydroxypropylcellulose) (HPC)",0 of 10 and 5 of 10
same,survivor count,[6],10 of 10
same,T/C,[7],104 % of control [8 of 10 alive]
same,survivor count,[7],0 of 10 and 1 of 10
same,survivor count,"dose: 400.0 mg/kg/injection, schedule: Q01DX001 (ip), vehicle: saline with Tween-80",10 of 10
same,survivor count,"dose: 400.0 mg/kg/injection, schedule: Q01DX001 (ip), vehicle: saline",0 of 10 and 6 of 10
Cc1ccc(S(=O)(=O)Nc2ccccc2-c2nc3c(Cl)ccc(Cl)c3c(=O)o2)cc1,survivor count,"dose: 400.0 mg/kg/injection, schedule: Q04DX003 (ip), vehicle: Klucel (hydroxypropylcellulose) (HPC)",10 of 10
CCN(CC)CCOc1ccc2c(c1)C(=O)c1cc(OCCN(CC)CC)ccc1-2,survivor count,"dose: 12.5 mg/kg/injection, schedule: Q01DX007 (ip), vehicle: saline",10 of 10
same,survivor count,[2],10 of 10
same,survivor count,[5],5 of 10
same,survivor count,"dose: 100.0 mg/kg/injection, schedule: Q01DX007 (ip), vehicle: saline",6 of 10
same,survivor count,[7],2 of 10
same,survivor count,"dose: 200.0 mg/kg/injection, schedule: Q01DX007 (ip), vehicle: saline",0 of 10
CC(=O)CC(=O)Nc1ccc([N+](=O)[O-])cc1,survivor count,[6],9 of 10
